Measurements: article PMC4076271

Sequences of proteins named here, by UniProt entry; tags and fusion partners are left off.
UniProt P26651: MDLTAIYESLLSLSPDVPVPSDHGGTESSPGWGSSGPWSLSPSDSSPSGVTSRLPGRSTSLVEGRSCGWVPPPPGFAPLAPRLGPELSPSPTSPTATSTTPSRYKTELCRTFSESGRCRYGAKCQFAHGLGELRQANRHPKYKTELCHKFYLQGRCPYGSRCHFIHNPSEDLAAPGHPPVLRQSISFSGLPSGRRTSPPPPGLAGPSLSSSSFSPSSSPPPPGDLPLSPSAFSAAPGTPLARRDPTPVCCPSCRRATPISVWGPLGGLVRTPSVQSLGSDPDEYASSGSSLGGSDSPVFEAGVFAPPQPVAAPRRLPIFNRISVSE
UniProt P62258: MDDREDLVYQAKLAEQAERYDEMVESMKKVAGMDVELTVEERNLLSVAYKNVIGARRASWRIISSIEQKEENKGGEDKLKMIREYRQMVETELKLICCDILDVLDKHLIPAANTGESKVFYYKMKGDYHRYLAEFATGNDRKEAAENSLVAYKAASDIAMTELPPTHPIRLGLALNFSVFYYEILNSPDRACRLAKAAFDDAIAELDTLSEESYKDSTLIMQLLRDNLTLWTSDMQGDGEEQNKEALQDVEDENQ
UniProt P27708: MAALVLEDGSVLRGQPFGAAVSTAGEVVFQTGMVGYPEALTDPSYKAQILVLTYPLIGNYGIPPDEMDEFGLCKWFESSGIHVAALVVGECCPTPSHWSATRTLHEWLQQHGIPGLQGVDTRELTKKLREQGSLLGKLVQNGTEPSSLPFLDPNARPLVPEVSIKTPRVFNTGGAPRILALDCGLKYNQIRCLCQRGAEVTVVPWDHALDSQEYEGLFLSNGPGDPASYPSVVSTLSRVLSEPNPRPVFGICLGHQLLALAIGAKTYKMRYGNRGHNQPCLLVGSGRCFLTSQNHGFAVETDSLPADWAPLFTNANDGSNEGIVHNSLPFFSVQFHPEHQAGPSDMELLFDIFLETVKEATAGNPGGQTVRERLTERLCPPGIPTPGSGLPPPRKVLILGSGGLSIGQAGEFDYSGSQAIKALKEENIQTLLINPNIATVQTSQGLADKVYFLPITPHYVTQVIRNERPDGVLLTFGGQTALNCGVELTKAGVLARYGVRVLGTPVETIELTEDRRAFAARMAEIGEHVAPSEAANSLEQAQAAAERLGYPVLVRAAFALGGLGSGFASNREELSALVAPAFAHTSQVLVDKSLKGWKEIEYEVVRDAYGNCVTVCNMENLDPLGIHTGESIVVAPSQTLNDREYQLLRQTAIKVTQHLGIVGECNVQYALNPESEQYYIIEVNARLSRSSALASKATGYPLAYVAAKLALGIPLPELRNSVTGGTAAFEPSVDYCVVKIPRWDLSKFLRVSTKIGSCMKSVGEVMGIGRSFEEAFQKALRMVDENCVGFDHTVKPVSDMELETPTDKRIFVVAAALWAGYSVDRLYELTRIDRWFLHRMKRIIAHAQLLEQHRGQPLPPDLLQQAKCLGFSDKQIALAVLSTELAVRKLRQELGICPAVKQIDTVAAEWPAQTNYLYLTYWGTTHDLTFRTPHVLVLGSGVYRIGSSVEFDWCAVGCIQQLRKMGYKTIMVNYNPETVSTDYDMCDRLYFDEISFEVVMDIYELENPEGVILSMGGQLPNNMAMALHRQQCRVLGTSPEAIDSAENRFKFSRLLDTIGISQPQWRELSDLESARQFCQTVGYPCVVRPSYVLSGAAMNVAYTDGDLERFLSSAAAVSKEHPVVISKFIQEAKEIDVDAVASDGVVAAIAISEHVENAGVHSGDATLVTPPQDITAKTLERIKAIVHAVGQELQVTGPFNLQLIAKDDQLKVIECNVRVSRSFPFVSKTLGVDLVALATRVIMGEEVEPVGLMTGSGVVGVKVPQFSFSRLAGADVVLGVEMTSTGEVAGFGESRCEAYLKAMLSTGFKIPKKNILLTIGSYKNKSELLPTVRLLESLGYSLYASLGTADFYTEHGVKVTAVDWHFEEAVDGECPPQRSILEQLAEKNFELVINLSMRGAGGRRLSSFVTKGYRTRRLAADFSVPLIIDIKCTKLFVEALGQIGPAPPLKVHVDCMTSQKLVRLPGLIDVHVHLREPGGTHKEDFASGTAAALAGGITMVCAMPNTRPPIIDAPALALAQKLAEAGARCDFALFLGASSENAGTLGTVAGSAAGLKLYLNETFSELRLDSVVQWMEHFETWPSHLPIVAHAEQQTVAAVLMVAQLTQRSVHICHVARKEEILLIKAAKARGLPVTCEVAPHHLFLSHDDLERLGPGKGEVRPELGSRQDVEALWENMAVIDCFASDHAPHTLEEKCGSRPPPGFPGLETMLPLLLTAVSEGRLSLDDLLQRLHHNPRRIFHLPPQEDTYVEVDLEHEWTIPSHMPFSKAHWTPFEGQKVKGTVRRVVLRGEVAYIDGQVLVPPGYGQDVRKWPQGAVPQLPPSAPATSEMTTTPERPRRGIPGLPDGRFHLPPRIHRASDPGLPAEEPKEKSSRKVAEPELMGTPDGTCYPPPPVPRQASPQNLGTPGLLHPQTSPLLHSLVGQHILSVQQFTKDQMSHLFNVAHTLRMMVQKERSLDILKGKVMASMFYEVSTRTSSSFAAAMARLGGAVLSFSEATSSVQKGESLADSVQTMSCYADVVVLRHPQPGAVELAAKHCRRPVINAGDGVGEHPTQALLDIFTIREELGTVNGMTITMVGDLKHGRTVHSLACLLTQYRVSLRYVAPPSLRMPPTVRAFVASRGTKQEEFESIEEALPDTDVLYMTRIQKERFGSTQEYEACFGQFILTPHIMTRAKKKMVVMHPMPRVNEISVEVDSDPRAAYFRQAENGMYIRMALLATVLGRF

Legend:
[1] = target: T1, Flag-tagged BRF1 (UniProt Q07352); assay: affinity purification with mass spectrometry; anti-Flag IP from RNase-treated extracts of stable T-REx HEK 293 lines expressing Flag-TTP or Flag-BRF1; SDS-PAGE, silver staining, mass spectrometry of individual gel bands
T1 sequence: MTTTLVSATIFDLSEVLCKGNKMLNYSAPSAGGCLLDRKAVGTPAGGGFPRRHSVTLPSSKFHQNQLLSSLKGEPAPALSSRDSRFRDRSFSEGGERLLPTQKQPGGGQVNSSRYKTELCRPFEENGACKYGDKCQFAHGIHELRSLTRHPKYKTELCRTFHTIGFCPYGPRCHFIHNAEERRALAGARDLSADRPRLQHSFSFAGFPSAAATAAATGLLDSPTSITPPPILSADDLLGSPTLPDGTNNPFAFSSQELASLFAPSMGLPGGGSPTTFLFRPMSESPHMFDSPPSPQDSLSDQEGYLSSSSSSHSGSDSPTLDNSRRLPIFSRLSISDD

[2] = target: Flag-tagged TTP (tristetraprolin) (UniProt P26651); assay: as above

## 14-3-3ε, endogenous in HEK 293 cells (from UniProt P62258 1-255)
[1]
  binding: binds
[2]
  binding: binds

## CAD (carbamoyl-phosphate synthetase 2, aspartate transcarbamylase, and dihydroorotase), endogenous in HEK 293 cells (from UniProt P27708 1-2225)
[1]
  binding: binds
[2]
  binding: binds

No constants are given. Whether binding was seen depends on the method and setting. In cells and extracts the contact can be indirect. These calls come from enrichment with a bait or labelling near it, and not all partners need be listed. For some of these results: Tags and fused reporters may be left off the sequences shown.
